We go through one compound from patent US20050031717A1, “Salt taste modification” (priority 2003, published 2005).

The subject of this experiment is amiloride-insensitive salt taste receptor. Put plainly: Rat chorda tympani (CT) taste nerve recordings. The conditions noted are these: 100 mM NaCl+5 μM Bz. It counts as in vivo. The source says: Chorda tympani nerve recordings. Recordings from the chorda tympani (CT) taste nerves of anesthetized rats were made. Recordings were made with various salt stimuli and with the taste receptive field under current or voltage clamp in order to observe the effect, if any, of modulating the driving force for ions through putative […] apical membrane ion channels involved in salt taste reception.

With `CCCCCCCCCCCCCCCC[n+]1ccccc1` [CPC, cetylpyridinium chloride], the “concentration at which the Bz-insensitive NaCl chorda tympani response decreased to rinse level” value amounted to 2 mM and the “concentration of maximum enhancement of the Bz-insensitive NaCl chorda tympani response” value is recorded as “around 250 μM”.
